Measurements published in article PMC10531797.
These are yes or no findings as the source states them, for the method shown. Binding seen in cells or lysates may run through a third protein. Some entries that bind do so weakly or less than the wild type. Where a sequence is shown, tags or fusion partners need not be part of it.

Protein sequences, listed by entry. Tags and fused reporters are not part of them. Residues count along the entry.
UniProt Q99523, residues 78-831: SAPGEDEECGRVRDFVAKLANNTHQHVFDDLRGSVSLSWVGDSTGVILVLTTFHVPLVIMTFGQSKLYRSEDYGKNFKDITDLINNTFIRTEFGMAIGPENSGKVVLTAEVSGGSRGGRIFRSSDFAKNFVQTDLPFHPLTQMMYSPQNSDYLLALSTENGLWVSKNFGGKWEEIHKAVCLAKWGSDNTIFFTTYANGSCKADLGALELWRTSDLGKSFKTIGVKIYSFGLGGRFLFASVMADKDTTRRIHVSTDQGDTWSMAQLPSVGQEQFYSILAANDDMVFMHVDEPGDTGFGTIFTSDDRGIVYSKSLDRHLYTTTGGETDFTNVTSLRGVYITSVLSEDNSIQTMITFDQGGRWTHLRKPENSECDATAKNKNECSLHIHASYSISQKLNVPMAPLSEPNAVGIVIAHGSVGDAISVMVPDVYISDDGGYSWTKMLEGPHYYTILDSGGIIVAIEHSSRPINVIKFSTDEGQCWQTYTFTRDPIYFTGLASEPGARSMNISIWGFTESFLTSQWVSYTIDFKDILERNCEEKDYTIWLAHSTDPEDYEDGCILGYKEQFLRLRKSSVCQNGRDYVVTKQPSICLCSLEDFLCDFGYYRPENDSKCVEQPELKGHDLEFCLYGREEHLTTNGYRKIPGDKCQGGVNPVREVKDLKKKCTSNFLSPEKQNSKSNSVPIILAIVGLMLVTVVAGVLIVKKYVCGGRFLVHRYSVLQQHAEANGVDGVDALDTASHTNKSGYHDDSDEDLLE

Target: T1, glucose transporter-4 (Glut4) (human (endogenous in adipocytes differentiated from hASCs)) (UniProt P14672)
T1 sequence: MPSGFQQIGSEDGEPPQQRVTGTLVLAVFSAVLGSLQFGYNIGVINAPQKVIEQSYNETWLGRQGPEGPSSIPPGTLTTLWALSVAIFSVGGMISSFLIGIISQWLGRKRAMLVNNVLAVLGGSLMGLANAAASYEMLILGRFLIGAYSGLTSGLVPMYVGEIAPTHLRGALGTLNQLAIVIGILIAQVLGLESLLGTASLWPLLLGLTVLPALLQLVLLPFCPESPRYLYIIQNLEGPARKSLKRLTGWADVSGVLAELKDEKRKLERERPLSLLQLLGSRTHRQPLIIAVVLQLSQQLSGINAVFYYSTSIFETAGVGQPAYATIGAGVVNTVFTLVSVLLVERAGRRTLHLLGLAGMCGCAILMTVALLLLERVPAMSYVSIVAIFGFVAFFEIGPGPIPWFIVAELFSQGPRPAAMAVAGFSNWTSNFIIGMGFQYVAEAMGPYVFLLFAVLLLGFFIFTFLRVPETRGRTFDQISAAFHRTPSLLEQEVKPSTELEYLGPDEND
Assay: co-IP; Glut4-agarose antibody (IgG as control) on 200 ug pre-cleared lysate of nondiabetic and type 2 diabetic human adipocytes (4 days of differentiation), overnight at 4 °C, PBS wash; blot with an antibody to the N-terminal domain of sortilin that detects both variants

binding: binds
Substance: full-length sortilin (Sort_FL) (from UniProt Q99523-1 78-831)
